According to the supplement of paper PMC4683952:
Structures can show the parent of a compound that is named as a salt. Some of the results follow. Cut-off read from the data, not from the text of the source: active = 2.5 or more and inactive = the rest. Repeats in this data set agree poorly, so a single value says little.

Test system: Lgr5 (MarsCy1-Lgr5-EGFP, U2OS)
Assay: cell-surface Lgr5 expression (SCi1 fluorescence, background-subtracted) relative to WT control (fold of WT control); higher = more Lgr5 at the plasma membrane
Conditions: U2OS MarsCy1-Lgr5-EGFP stable; treatment time: overnight; library: Prestwick; 20 µM

Structure (SMILES)	cell-surface Lgr5 expression
Fc1ccc(C(c2ccc(F)cc2)N2CCN(C/C=C/c3ccccc3)CC2)cc1 [Flunarizine dihydrochloride]	inactive: 1.28
CC(=O)Nc1cc2ccccc2oc1=O [3-Acetamidocoumarin]	inactive: 0.837
N=C(N)c1ccc(OCCCCCOc2ccc(C(=N)N)cc2)cc1 [Pentamidine isethionate]	inactive: 1.74
CN1C(C)(C)CCCC1(C)C [Pempidine tartrate]	inactive: 1.18
Cc1onc(-c2c(Cl)cccc2Cl)c1C(=O)N[C@@H]1C(=O)N2[C@@H]1SC(C)(C)[C@@H]2C(=O)O [Dicloxacillin sodium salt]	inactive: 0.0712
CN(C)/N=N/c1[nH]cnc1C(N)=O [Dacarbazine]	active: 3.38
CC[N+](C)(C)Cc1ccccc1Br [Bretylium tosylate]	inactive: 1.63
C[N+](C)(C)CCCCCC[N+](C)(C)C [Hexamethonium dibromide dihydrate]	inactive: 1.32
O=C(O)c1cccnc1Nc1cccc(C(F)(F)F)c1 [Niflumic acid]	inactive: 1.26
Cc1oncc1C(=O)Nc1ccc(C(F)(F)F)cc1 [Leflunomide]	inactive: 1.85
COc1ccc(C(Cl)=C(c2ccc(OC)cc2)c2ccc(OC)cc2)cc1 [Chlorotrianisene]	inactive: 1.91
CC(CCc1ccccc1)NCC(O)c1ccc(O)c(C(N)=O)c1 (centres undefined) [Labetalol hydrochloride]	inactive: -0.167
COC(=O)Nc1nc2cc(C(=O)c3ccccc3)ccc2[nH]1 [Mebendazole]	inactive: 0.926
CC1(C)S[C@@H]2[C@H](NC(=O)[C@H](NC(=O)N3CCNC3=O)c3ccccc3)C(=O)N2[C@H]1C(=O)O [Azlocillin sodium salt]	inactive: 2.49
Cc1cc2c(cc1S(N)(=O)=O)S(=O)(=O)CCC2 [Meticrane]	inactive: 1.3
Clc1cnccn1 [2-Chloropyrazine]	inactive: 1.04
C[C@]1(OC(=O)/C=C/c2ccccc2)C[C@@H](O)[C@]2(O)C=CO[C@@H](O[C@@H]3O[C@H](CO)[C@@H](O)[C@H](O)[C@H]3O)[C@@H]21 [Harpagoside]	inactive: 0.695
COC(=O)[C@H]1[C@H]2C[C@H]3c4[nH]c5ccccc5c4CCN3C[C@@H]2CC[C@@H]1O [Corynanthine hydrochloride]	inactive: 2.36
CSc1ccc2c(c1)C(N1CCN(C)CC1)Cc1ccccc1S2 (centres undefined) [Methiothepin maleate]	inactive: 1.65
Cc1cc(C(C)(C)C)c(O)c(C)c1CC1=NCCN1 [Oxymetazoline hydrochloride]	inactive: 1.21
CN(C)CCCN1c2ccccc2Sc2ccccc21 [Promazine hydrochloride]	inactive: 1.99
NS(=O)(=O)c1cc(C(=O)O)cc(N2CCCC2)c1Oc1ccccc1 [Piretanide]	inactive: 1.18

Structure (SMILES)	cell-surface Lgr5 expression
C[N+]1(C)C[C@H](O)C[C@H]1C(=O)[O-] [Betonicine]	inactive: 2.06
COc1ccc([C@@H]2CC(=O)c3c(O)cc(O[C@@H]4O[C@H](CO[C@@H]5O[C@@H](C)[C@H](O)[C@@H](O)[C@H]5O)[C@@H](O)[C@H](O)[C@H]4O)cc3O2)cc1O [Hesperidin]	inactive: 1.07
CCN(CC)C(=S)SSC(=S)N(CC)CC [Disulfiram]	inactive: 0.755
C/C(=C(\CCOP(=O)(O)O)SC(=O)c1ccccc1)N(C=O)Cc1cnc(C)nc1N [Benfotiamine]	active: 3.35
O=c1cc(-c2ccccc2)oc2cc(O)cc(O)c12 [Chrysin]	inactive: 1.06
C[C@]12C[C@H](O)[C@H]3[C@@H](CCC4=CC(=O)CC[C@@]43C)[C@@H]1CC[C@@H]2C(=O)CO [Corticosterone]	inactive: 2.49
O=C1CN(/N=C/c2ccc(-c3ccc([N+](=O)[O-])cc3)o2)C(=O)N1 [Dantrolene sodium salt]	inactive: 1.18
CCOC(=O)n1ccn(C)c1=S [Carbimazole]	active: 2.69
CC1(C)S[C@@H]2[C@H](NC(=O)[C@H](C(=O)O)c3ccsc3)C(=O)N2[C@H]1C(=O)O [Ticarcillin sodium]	inactive: 1.13
Cc1cc(NS(=O)(=O)c2ccc(N)cc2)no1 [Sulfamethoxazole]	inactive: 2.1
CN[C@@H]1[C@@H](O)[C@@H](O[C@@H]2[C@@H](O)[C@H](O[C@H]3OC(CN)=CC[C@H]3N)[C@@H](N)C[C@H]2N)OC[C@]1(C)O [Sisomicin sulfate]	inactive: 1.83
Cc1ccccc1OCC(O)CO (centres undefined) [Mephenesin]	inactive: 1.83
O=C1CN(/N=C/c2ccc([N+](=O)[O-])o2)C(=O)N1 [Nitrofurantoin]	inactive: 0.807
C[C@H](N)[C@H](O)c1cccc(O)c1 [Metaraminol bitartrate]	inactive: 1.49
CCN(CC)CCOC(=O)C(Cc1cccc2ccccc12)CC1CCCO1 (centres undefined) [Nafronyl oxalate]	inactive: 1.08
CC(C(=O)O)c1cccc(C(=O)c2ccccc2)c1 (centres undefined) [Ketoprofen]	inactive: 1.4
CCCC1O[C@@H]2C[C@H]3[C@@H]4CCC5=CC(=O)C=C[C@]5(C)[C@H]4[C@@H](O)C[C@]3(C)[C@]2(C(=O)CO)O1 (some centres undefined) [Budesonide]	active: 3.98
COc1ncnc(NS(=O)(=O)c2ccc(N)cc2)c1OC [Sulfadoxine]	inactive: 1.34
CC(=O)OCC(=O)[C@@]1(O)[C@H](C)C[C@H]2[C@@H]3CCC4=CC(=O)C=C[C@]4(C)[C@@]3(F)[C@@H](O)C[C@@]21C [Dexamethasone acetate]	active: 2.75
COc1ccc(C(=O)c2ccccc2)c(O)c1 [Oxybenzone]	inactive: 2
Nc1nc2c(ncn2COCCO)c(=O)[nH]1 [Acyclovir]	inactive: 1.09
CCCCCN(CCCCC)C(=O)C(CCC(=O)O)NC(=O)c1ccc(Cl)c(Cl)c1 (centres undefined) [Lorglumide sodium salt]	inactive: 0.614

Grouped by structure: the compounds so far containing a nitro group on carbon.
Structure (SMILES)	cell-surface Lgr5 expression
O=C1CN(/N=C/c2ccc(-c3ccc([N+](=O)[O-])cc3)o2)C(=O)N1 [Dantrolene sodium salt]	inactive: 1.18
O=C1CN(/N=C/c2ccc([N+](=O)[O-])o2)C(=O)N1 [Nitrofurantoin]	inactive: 0.807
